PubChem BioAssay AID652259 – Drosophila RNAi Screening Center | 2013

Purpose: 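Identify new Wingless signalling regulators in fly cells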 (primary screen)
Cells: Drosophila clone 8 imaginal disc epithelial cells
Reagent: long dsRNA against Drosophila genes
Conditions: pathway stimulated by co-transfected Wingless expression plasmid
Measured: 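Dual luciferase reads per well after Wingless plasmid stimulation: reporter firefly light and Renilla control light; activity is firefly divided by Renilla, a ratio not deposited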
Scale: firefly reporter light: higher = more Wg reporter light, before normalisation; Renilla control light: higher = more transfected or surviving cells
Call rule: 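Strong candidates differ from their plate mean by at least two out of four per-plate statistical tests; weak candidates meet just one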
Calls: active = candidate regulator (raises or lowers reporter); inactive = not a candidate
In all, the deposit lists about 22,000 reagents; this is a random part of those with a known target gene and a result. Of all reagents, 233 (1.1%) were called active. 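Light values are raw, unnormalised plate reads; the ratio scores behind the reporter calls were not deposited.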 Names joined by + are all predicted targets of the reagent. Reagent sequences are not shown. The record does not give: the amount of reagent, the time to read-out, the dose of the treatment.

CG7328 [DRSC10812] → firefly reporter light, replicate 1: 13497; Renilla control light, replicate 1: 4272; Outcome: inactive
hec [DRSC19895] → firefly reporter light, replicate 1: 20637; Renilla control light, replicate 1: 9240; Outcome: inactive
Rpt3R [DRSC16501] → firefly reporter light, replicate 1: 10969; Renilla control light, replicate 1: 2695; Outcome: inactive
Crz [DRSC16615] → firefly reporter light, replicate 1: 19619; Renilla control light, replicate 1: 3681; Outcome: inactive
Cyp6a21 [DRSC07381] → firefly reporter light, replicate 1: 8544; Renilla control light, replicate 1: 3319; Outcome: inactive
CG1983 [DRSC15410] → firefly reporter light, replicate 1: 9547; Renilla control light, replicate 1: 3348; Outcome: inactive
Gr68a [DRSC10803] → firefly reporter light, replicate 1: 7354; Renilla control light, replicate 1: 3366; Outcome: inactive
IFT43 [DRSC02892] → firefly reporter light, replicate 1: 7154; Renilla control light, replicate 1: 2723; Outcome: inactive

Reformatted: entries from further up
{"Gene":"CG7328","dsRNA":"DRSC10812","firefly reporter light, replicate 1":13497,"Renilla control light, replicate 1":4272,"Outcome":"inactive"}
{"Gene":"hec","dsRNA":"DRSC19895","firefly reporter light, replicate 1":20637,"Renilla control light, replicate 1":9240,"Outcome":"inactive"}

The results go on.
CG6769 [DRSC20006] → firefly reporter light, replicate 1: 4129; firefly reporter light, replicate 2: 7196; Renilla control light, replicate 1: 1296; Renilla control light, replicate 2: 2396; Outcome: inactive
Or45a [DRSC07487] → firefly reporter light, replicate 1: 2204; firefly reporter light, replicate 2: 7415; Renilla control light, replicate 1: 541; Renilla control light, replicate 2: 1011; Outcome: inactive
CG3009 [DRSC18263] → firefly reporter light, replicate 1: 2693; firefly reporter light, replicate 2: 5120; Renilla control light, replicate 1: 960; Renilla control light, replicate 2: 1244; Outcome: inactive
AttB [DRSC06734] → firefly reporter light, replicate 1: 5029; Renilla control light, replicate 1: 2136; Outcome: inactive
CG6980 [DRSC16162] → firefly reporter light, replicate 1: 3696; firefly reporter light, replicate 2: 4922; Renilla control light, replicate 1: 1544; Renilla control light, replicate 2: 1954; Outcome: inactive
CG4714 [DRSC06883] → firefly reporter light, replicate 1: 12632; Renilla control light, replicate 1: 3584; Outcome: inactive
CG5321 [DRSC19940] → firefly reporter light, replicate 1: 26883; Renilla control light, replicate 1: 11062; Outcome: inactive
CG5321 [DRSC22802] → firefly reporter light, replicate 1: 4.95e5; firefly reporter light, replicate 2: 5.04e5; Renilla control light, replicate 1: 2.36e5; Renilla control light, replicate 2: 2.86e5; Outcome: inactive
Tsp42Ep [DRSC06871] → firefly reporter light, replicate 1: 12384; Renilla control light, replicate 1: 2107; Outcome: inactive
CG43327 + CG43328 [DRSC05640] → firefly reporter light, replicate 1: 17888; Renilla control light, replicate 1: 12869; Outcome: inactive
CG12517 [DRSC02173] → firefly reporter light, replicate 1: 1928; firefly reporter light, replicate 2: 3830; Renilla control light, replicate 1: 849; Renilla control light, replicate 2: 2187; Outcome: inactive
CG7900 [DRSC16336] → firefly reporter light, replicate 1: 27808; Renilla control light, replicate 1: 8441; Outcome: inactive
CG7900 [DRSC21343] → firefly reporter light, replicate 1: 4.76e5; firefly reporter light, replicate 2: 4.74e5; Renilla control light, replicate 1: 2.02e5; Renilla control light, replicate 2: 1.82e5; Outcome: inactive
bumpel [DRSC16100] → firefly reporter light, replicate 1: 13421; Renilla control light, replicate 1: 4074; Outcome: inactive
CG9641 [DRSC00721] → firefly reporter light, replicate 1: 15779; Renilla control light, replicate 1: 5320; Outcome: inactive
Arp3 [DRSC09669] → firefly reporter light, replicate 1: 6258; Renilla control light, replicate 1: 2299; Outcome: inactive
Ggamma30A [DRSC02715] → firefly reporter light, replicate 1: 1845; firefly reporter light, replicate 2: 5350; Renilla control light, replicate 1: 837; Renilla control light, replicate 2: 2647; Outcome: inactive
Ggamma30A [DRSC03331] → firefly reporter light, replicate 1: 2912; firefly reporter light, replicate 2: 5644; Renilla control light, replicate 1: 945; Renilla control light, replicate 2: 3008; Outcome: inactive
